# Literature values as cited in PMC6640931 (ACS Omega, 2017).
# Details: cited from earlier work
structure (smiles),measurement,value
COc1ccc2cc(C(C)C(=O)[O-])ccc2c1.C[N+](C)(C)CCO (stereo not shown) [choline naproxen],water solubility of choline salt relative to neutral form,6700 times
